Results published in paper PMC12445474, “Conservation of heat stress acclimation by the IPK2-type kinases that control the synthesis of the inositol pyrophosphate 4/6-InsP7 in land plants” (PLOS Genetics, 2025).

Assays:
MBP = assay: EMSA; settings: 50-200 nM protein, 250 nM probe; EMSA: 250 nM FAM probe, 15 min on ice (30 min pre-incubation with partner or InsP), 6% native PAGE; binding buffer not stated (proteins purified in PBS pH 7.4); recombinant protein; protein details: His8; label: 5' FAM on strand 1
MpHSFB1 [1] = assay: EMSA; settings: EMSA: 250 nM FAM probe, 15 min on ice (30 min pre-incubation with partner or InsP), 6% native PAGE, binding buffer not stated (proteins purified in PBS pH 7.4), recombinant protein, protein details: N-terminal His8-MBP, label: 5' FAM on strand 1
AtHSFA1b = target: T1, AtHSFA1b (UniProt O81821); assay: competition with a labelled probe; settings: 50-500 nM competitor, 50 nM protein, 250 nM labelled probe; EMSA: 250 nM FAM probe, 15 min on ice (30 min pre-incubation with partner or InsP), 6% native PAGE; binding buffer not stated (proteins purified in PBS pH 7.4); recombinant protein; protein details: N-terminal His8-MBP
T1 sequence (looked up, limits assumed): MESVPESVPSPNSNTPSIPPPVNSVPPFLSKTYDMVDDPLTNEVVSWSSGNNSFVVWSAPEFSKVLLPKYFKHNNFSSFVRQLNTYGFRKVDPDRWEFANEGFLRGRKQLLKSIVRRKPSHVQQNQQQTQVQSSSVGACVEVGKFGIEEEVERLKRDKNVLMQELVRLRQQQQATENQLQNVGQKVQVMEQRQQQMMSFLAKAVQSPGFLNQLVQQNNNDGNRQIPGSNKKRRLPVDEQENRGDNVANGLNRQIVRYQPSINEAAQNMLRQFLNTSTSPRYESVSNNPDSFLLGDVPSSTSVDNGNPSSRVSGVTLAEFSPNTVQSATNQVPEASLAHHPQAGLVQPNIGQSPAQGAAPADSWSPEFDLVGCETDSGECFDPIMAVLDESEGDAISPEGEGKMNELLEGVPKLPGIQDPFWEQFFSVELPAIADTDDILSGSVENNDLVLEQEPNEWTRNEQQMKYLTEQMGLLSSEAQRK

MpHSFB1 [2] = assay: competition with a labelled probe; settings: 50-500 nM competitor, 50 nM protein, 250 nM labelled probe; EMSA: 250 nM FAM probe, 15 min on ice (30 min pre-incubation with partner or InsP), 6% native PAGE; binding buffer not stated (proteins purified in PBS pH 7.4); recombinant protein; protein details: N-terminal His8-MBP

CTCGGTCGATCGAGAAGCTTCTGCATGATG / AAACCATCATGCAGAAGCTTCTCGATCGAC [FAM-HSE (AtHSP18.1 promoter element)]
binding result (MBP): no binding
binding result (MpHSFB1 [1]; 25-250 nM protein, 250 nM probe): binds
binding result (MpHSFB1 [1]; with 4/6-InsP7 (10 nM-10 µM): no effect): binds
binding result (MpHSFB1 [1]; with His8-MBP (50-500 nM): no effect): binds
binding result (MpHSFB1 [1]; with Ins(1,4,5)P3 (10 nM-10 µM): no effect): binds
binding result (MpHSFB1 [1]; with InsP6 (10 nM-10 µM): no effect): binds
binding result (MpHSFB1 [1]; with MBP-MpIPMK (50-500 nM): binding enhanced dose-dependently): binds

CTCGGTCGATCGAGAAGCTTCTGCATGATG / AAACCATCATGCAGAAGCTTCTCGATCGAC [unlabelled HSE competitor]
binding result (AtHSFA1b): binds
binding result (MpHSFB1 [2]): binds

CTCGGTCGATCGATGCATGATG / AAACCATCATGCATCGATCGAC [HSE∆]
binding result (MpHSFB1 [1]; 50 and 100 nM protein, 250 nM probe): no binding

The exact form of at least one protein or probe is not confirmed. For some of these results: No signal at the amounts used counts as a negative. For some of these results: At least one verdict rests on a figure or table, not on a statement of the authors. For some of these results: Tags and fusion partners may be left off the protein sequences shown.
